Laboratory results as given in paper PMC3946611, “hCLE/C14orf166 Associates with DDX1-HSPC117-FAM98B in a Novel Transcription-Dependent Shuttling RNA-Transporting Complex” (PLoS ONE, 2014).
These are yes or no findings as the source states them, for the method shown. Binding seen in cells or lysates may run through a third protein. A yes stands for co-enrichment or nearness to the bait. Other partners may have been found. Sequences can lack the tags named with a protein.

Sequences of proteins named here, by UniProt entry; tags and fusion partners are left off. Residues count along the entry.
UniProt Q13443, residues 29-819: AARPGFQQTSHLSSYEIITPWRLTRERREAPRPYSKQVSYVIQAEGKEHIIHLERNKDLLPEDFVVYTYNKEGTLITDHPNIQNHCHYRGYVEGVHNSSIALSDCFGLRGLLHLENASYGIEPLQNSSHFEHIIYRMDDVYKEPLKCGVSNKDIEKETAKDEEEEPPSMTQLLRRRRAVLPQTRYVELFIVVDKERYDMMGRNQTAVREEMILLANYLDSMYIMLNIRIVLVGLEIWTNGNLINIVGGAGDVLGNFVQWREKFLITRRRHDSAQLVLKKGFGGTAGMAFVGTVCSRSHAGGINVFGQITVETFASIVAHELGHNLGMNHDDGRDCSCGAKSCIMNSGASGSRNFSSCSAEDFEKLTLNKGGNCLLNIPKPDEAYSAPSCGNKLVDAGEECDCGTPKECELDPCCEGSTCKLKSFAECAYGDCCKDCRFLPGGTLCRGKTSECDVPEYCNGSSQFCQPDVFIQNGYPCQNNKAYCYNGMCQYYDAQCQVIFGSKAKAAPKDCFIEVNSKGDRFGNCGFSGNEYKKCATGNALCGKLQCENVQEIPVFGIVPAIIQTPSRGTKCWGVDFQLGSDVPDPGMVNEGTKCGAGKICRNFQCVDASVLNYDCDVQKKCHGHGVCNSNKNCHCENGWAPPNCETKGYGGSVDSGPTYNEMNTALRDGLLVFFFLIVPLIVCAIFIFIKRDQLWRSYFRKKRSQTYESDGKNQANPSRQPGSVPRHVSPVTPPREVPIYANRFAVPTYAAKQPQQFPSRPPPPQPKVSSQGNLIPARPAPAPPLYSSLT
UniProt O75190: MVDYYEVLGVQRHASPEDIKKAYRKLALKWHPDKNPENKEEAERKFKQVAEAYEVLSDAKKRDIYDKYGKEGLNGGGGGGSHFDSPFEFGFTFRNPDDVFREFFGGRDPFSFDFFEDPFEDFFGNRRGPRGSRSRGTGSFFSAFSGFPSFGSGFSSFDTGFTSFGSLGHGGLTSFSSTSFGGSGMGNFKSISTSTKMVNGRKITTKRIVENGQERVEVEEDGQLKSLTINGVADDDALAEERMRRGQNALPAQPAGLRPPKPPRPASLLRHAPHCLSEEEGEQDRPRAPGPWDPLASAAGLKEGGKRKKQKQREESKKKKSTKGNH
UniProt P55081: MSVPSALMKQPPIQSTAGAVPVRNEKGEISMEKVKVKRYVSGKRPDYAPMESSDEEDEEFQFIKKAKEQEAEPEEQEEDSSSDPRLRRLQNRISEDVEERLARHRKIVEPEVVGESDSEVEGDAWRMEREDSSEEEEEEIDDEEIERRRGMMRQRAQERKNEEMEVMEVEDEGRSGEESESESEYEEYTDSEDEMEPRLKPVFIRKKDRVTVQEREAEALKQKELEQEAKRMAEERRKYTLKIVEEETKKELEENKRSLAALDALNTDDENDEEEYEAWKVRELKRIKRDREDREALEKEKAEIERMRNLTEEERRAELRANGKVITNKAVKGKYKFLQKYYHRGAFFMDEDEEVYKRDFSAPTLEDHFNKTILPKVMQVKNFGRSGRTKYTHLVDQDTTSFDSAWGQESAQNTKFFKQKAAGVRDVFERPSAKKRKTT
UniProt P20648: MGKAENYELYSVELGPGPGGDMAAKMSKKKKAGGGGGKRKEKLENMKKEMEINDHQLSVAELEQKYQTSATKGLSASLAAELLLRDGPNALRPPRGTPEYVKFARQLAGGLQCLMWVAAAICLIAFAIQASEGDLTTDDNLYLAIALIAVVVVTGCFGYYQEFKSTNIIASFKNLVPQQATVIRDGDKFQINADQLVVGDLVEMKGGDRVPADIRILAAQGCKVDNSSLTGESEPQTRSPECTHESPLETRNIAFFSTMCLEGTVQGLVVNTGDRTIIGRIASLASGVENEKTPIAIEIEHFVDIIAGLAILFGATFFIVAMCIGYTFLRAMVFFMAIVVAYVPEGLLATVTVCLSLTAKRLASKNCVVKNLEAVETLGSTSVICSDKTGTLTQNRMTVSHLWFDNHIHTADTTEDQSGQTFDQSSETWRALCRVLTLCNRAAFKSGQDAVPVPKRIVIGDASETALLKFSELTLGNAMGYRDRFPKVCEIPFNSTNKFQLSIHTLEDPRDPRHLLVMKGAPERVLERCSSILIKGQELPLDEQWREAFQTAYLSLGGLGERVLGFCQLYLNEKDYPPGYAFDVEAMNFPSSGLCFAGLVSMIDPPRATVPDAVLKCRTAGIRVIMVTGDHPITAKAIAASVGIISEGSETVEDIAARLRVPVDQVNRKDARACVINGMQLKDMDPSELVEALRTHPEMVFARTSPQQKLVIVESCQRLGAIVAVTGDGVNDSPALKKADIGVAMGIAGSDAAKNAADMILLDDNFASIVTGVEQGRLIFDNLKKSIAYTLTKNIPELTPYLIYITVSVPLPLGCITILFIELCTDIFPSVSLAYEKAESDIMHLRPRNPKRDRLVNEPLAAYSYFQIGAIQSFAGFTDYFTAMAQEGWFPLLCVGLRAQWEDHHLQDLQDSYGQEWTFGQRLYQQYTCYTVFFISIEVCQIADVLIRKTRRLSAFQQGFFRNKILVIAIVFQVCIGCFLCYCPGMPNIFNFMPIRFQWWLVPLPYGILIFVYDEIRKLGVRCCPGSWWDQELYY
UniProt Q17RN3: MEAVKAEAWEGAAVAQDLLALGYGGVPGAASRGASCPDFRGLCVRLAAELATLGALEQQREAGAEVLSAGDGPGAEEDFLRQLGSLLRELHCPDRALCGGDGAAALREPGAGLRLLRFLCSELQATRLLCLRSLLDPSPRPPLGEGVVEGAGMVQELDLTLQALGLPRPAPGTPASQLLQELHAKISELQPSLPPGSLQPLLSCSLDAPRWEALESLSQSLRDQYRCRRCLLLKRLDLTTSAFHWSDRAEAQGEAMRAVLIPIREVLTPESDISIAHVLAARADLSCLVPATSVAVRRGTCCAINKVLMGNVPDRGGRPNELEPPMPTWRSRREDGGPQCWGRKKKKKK
UniProt Q6NVV1: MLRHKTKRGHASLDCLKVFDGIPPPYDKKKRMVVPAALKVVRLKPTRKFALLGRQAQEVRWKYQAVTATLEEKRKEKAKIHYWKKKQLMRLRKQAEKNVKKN
UniProt Q14692: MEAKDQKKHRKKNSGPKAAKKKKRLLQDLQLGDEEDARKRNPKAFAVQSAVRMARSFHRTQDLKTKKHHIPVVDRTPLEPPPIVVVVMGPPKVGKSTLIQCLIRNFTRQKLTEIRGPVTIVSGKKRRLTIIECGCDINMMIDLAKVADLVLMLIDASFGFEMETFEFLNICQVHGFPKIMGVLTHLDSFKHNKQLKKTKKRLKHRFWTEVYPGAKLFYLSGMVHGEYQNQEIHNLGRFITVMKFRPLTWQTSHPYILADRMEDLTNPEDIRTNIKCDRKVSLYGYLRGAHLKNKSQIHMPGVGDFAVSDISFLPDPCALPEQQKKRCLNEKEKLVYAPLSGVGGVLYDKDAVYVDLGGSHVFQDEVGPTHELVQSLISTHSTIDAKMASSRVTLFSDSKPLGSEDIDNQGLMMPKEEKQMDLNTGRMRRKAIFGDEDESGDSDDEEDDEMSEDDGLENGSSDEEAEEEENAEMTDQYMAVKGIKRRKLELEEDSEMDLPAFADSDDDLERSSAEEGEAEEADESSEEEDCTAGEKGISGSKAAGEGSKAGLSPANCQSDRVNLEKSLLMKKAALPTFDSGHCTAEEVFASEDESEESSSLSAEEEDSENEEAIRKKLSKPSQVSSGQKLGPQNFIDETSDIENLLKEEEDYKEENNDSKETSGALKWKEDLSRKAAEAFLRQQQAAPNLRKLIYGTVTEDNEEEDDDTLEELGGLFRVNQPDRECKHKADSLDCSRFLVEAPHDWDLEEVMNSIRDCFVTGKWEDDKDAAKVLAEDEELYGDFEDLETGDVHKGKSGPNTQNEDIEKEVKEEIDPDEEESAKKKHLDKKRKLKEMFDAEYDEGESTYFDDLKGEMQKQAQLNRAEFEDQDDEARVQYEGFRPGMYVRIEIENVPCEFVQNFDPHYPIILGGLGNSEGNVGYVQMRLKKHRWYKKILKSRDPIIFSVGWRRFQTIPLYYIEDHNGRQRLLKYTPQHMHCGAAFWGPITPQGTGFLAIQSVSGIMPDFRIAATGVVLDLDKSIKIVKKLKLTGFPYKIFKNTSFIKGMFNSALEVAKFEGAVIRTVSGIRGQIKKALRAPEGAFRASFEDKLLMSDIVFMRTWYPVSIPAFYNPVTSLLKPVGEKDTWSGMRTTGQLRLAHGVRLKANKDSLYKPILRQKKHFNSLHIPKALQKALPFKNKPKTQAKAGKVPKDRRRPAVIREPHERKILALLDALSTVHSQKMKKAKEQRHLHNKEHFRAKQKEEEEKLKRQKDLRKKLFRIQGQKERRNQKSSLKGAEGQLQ
UniProt Q9UDY2: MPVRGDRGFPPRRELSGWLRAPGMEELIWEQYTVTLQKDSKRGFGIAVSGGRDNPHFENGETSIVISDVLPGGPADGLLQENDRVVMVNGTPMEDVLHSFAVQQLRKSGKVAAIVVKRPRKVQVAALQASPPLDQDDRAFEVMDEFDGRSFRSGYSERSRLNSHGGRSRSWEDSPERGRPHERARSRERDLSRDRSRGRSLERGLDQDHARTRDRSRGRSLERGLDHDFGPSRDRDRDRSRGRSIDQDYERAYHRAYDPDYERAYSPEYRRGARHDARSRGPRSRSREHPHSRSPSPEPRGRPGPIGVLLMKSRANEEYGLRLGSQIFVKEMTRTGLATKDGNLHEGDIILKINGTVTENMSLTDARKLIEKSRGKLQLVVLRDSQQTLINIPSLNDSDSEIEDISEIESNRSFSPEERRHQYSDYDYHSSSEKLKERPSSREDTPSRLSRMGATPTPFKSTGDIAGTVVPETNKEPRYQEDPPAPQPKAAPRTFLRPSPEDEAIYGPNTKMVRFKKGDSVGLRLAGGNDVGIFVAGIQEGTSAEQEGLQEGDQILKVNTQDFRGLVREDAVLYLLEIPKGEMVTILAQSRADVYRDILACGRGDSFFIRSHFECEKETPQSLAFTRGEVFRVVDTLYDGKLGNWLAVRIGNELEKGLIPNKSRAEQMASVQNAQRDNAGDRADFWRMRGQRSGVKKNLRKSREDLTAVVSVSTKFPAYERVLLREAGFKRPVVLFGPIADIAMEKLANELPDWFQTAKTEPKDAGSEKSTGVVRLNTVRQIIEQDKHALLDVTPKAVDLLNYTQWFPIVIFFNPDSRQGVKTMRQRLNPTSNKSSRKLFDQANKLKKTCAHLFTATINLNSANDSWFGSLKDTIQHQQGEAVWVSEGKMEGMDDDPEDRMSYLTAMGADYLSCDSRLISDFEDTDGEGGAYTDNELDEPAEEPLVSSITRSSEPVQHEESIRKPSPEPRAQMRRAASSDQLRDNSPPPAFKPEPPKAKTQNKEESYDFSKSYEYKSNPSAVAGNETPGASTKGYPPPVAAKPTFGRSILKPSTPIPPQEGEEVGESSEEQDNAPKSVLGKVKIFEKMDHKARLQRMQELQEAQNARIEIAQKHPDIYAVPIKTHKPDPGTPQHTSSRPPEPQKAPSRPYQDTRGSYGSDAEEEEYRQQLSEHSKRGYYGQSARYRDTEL
UniProt Q8WXI9: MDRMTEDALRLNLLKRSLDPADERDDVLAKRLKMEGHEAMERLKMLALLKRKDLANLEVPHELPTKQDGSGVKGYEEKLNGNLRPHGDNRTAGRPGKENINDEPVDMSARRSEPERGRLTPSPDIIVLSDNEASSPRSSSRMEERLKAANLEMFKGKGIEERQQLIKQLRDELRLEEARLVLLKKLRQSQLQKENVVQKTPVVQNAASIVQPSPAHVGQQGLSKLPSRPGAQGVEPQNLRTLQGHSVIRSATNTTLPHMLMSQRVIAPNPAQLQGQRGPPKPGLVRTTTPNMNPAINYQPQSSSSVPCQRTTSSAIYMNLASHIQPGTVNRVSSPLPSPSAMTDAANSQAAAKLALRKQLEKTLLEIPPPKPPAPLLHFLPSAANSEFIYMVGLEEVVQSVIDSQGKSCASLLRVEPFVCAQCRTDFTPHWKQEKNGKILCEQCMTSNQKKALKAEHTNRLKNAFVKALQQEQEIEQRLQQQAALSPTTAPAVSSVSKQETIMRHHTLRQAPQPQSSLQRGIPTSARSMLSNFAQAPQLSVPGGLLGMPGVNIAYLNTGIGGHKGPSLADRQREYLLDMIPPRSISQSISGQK

T1: hCLE-TAP tagged protein, purified as hCLE-CBD (human) (UniProt Q9Y224)
T1 sequence: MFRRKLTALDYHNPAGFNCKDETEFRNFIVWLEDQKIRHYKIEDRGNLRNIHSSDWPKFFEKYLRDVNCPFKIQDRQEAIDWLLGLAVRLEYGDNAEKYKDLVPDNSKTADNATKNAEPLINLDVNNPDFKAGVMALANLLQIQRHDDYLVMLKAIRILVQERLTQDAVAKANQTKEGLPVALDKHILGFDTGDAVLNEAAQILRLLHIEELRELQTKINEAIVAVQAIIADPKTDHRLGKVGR

B1: Single-stranded DNA-binding protein 3 (protein, UniProt Q9BWW4 1-388)
chain: MFAKGKGSAVPSDGQAREKLALYVYEYLLHVGAQKSAQTFLSEIRWEKNITLGEPPGFLHSWWCVFWDLYCAAPERRDTCEHSSEAKAFHDYSAAAAPSPVLGNIPPNDGMPGGPIPPGFFQGPPGSQPSPHAQPPPHNPSSMMGPHSQPFMSPRYAGGPRPPIRMGNQPPGGVPGTQPLLPNSMDPTRQQGHPNMGGSMQRMNPPRGMGPMGPGPQNYGSGMRPPPNSLGPAMPGINMGPGAGRPWPNPNSANSIPYSSSSPGTYVGPPGGGGPPGTPIMPSPADSTNSSDNIYTMINPVPPGGSRSNFPMGPGSDGPMGGMGGMEPHHMNGSLGSGDIDGLPKNSPNNISGISNPPGTPRDDGELGGNFLHSFQNDNYSPSMTMSV
B2: ATP-binding cassette sub-family D member 3 (protein, UniProt P28288 1-659)
chain: MAAFSKYLTARNSSLAGAAFLLLCLLHKRRRALGLHGKKSGKPPLQNNEKEGKKERAVVDKVFFSRLIQILKIMVPRTFCKETGYLVLIAVMLVSRTYCDVWMIQNGTLIESGIIGRSRKDFKRYLLNFIAAMPLISLVNNFLKYGLNELKLCFRVRLTKYLYEEYLQAFTYYKMGNLDNRIANPDQLLTQDVEKFCNSVVDLYSNLSKPFLDIVLYIFKLTSAIGAQGPASMMAYLVVSGLFLTRLRRPIGKMTITEQKYEGEYRYVNSRLITNSEEIAFYNGNKREKQTVHSVFRKLVEHLHNFILFRFSMGFIDSIIAKYLATVVGYLVVSRPFLDLSHPRHLKSTHSELLEDYYQSGRMLLRMSQALGRIVLAGREMTRLAGFTARITELMQVLKDLNHGKYERTMVSQQEKGIEGVQVIPLIPGAGEIIIADNIIKFDHVPLATPNGDVLIRDLNFEVRSGANVLICGPNGCGKSSLFRVLGELWPLFGGRLTKPERGKLFYVPQRPYMTLGTLRDQVIYPDGREDQKRKGISDLVLKEYLDNVQLGHILEREGGWDSVQDWMDVLSGGEKQRMAMARLFYHKPQFAILDECTSAVSVDVEGYIYSHCRKVGITLFTVSHRKSLWKHHEYYLHMDGRGNYEFKQITEDTVEFGS
B3: B-cell receptor-associated protein 31 (protein, UniProt P51572 1-246)
chain: MSLQWTAVATFLYAEVFVVLLLCIPFISPKRWQKIFKSRLVELLVSYGNTFFVVLIVILVLLVIDAVREIRKYDDVTEKVNLQNNPGAMEHFHMKLFRAQRNLYIAGFSLLLSFLLRRLVTLISQQATLLASNEAFKKQAESASEAAKKYMEENDQLKKGAAVDGGKLDVGNAEVKLEEENRSLKADLQKLKDELASTKQKLEKAENQVLAMRKQSEGLTKEYDRLLEEHAKLQAAVDGPMDKKEE
B4: DnaJ homolog subfamily C member 11 (protein, UniProt Q9NVH1 1-559)
chain: MATALSEEELDNEDYYSLLNVRREASSEELKAAYRRLCMLYHPDKHRDPELKSQAERLFNLVHQAYEVLSDPQTRAIYDIYGKRGLEMEGWEVVERRRTPAEIREEFERLQREREERRLQQRTNPKGTISVGVDATDLFDRYDEEYEDVSGSSFPQIEINKMHISQSIEAPLTATDTAILSGSLSTQNGNGGGSINFALRRVTSAKGWGELEFGAGDLQGPLFGLKLFRNLTPRCFVTTNCALQFSSRGIRPGLTTVLARNLDKNTVGYLQWRWGIQSAMNTSIVRDTKTSHFTVALQLGIPHSFALISYQHKFQDDDQTRVKGSLKAGFFGTVVEYGAERKISRHSVLGAAVSVGVPQGVSLKVKLNRASQTYFFPIHLTDQLLPSAMFYATVGPLVVYFAMHRLIIKPYLRAQKEKELEKQRESAATDVLQKKQEAESAVRLMQESVRRIIEAEESRMGLIIVNAWYGKFVNDKSRKSEKVKVIDVTVPLQCLVKDSKLILTEASKAGLPGFYDPCVGEEKNLKVLYQFRGVLHQVMVLDSEALRIPKQSHRIDTDG
B5: Golgin subfamily A member 3 (protein, UniProt Q08378 1-1498)
chain: MDGASAEQDGLQEDRSHSGPSSLPEAPLKPPGPLVPPDQQDKVQCAEVNRASTEGESPDGPGQGGLCQNGPTPPFPDPPSSLDPTTSPVGPDASPGVAGFHDNLRKSQGTSAEGSVRKEALQSLRLSLPMQETQLCSTDSPLPLEKEEQVRLQARKWLEEQLKQYRVKRQQERSSQPATKTRLFSTLDPELMLNPENLPRASTLAMTKEYSFLRTSVPRGPKVGSLGLPAHPREKKTSKSSKIRSLADYRTEDSNAGNSGGNVPAPDSTKGSLKQNRSSAASVVSEISLSPDTDDRLENTSLAGDSVSEVDGNDSDSSSYSSASTRGTYGILSKTVGTQDTPYMVNGQEIPADTLGQFPSIKDVLQAAAAEHQDQGQEVNGEVRSRRDSICSSVSLESSAAETQEEMLQVLKEKMRLEGQLEALSLEASQALKEKAELQAQLAALSTKLQAQVECSHSSQQRQDSLSSEVDTLKQSCWDLERAMTDLQNMLEAKNASLASSNNDLQVAEEQYQRLMAKVEDMQRSMLSKDNTVHDLRQQMTALQSQLQQVQLERTTLTSKLKASQAEISSLQSVRQWYQQQLALAQEARVRLQGEMAHIQVGQMTQAGLLEHLKLENVSLSQQLTETQHRSMKEKGRIAAQLQGIEADMLDQEAAFMQIQEAKTMVEEDLQRRLEEFEGERERLQRMADSAASLEQQLEQVKLTLLQRDQQLEALQQEHLDLMKQLTLTQEALQSREQSLDALQTHYDELQARLGELQGEAASREDTICLLQNEKIILEAALQAAKSGKEELDRGARRLEEGTEETSETLEKLREELAIKSGQVEHLQQETAALKKQMQKIKEQFLQQKVMVEAYRRDATSKDQLISELKATRKRLDSELKELRQELMQVHGEKRTAEAELSRLHREVAQVRQHMADLEGHLQSAQKERDEMETHLQSLQFDKEQMVAVTEANEALKKQIEELQQEARKAITEQKQKMRRLGSDLTSAQKEMKTKHKAYENAVGILSRRLQEALAAKEAADAELGQLRAQGGSSDSSLALHERIQALEAELQAVSHSKTLLEKELQEVIALTSQELEESREKVLELEDELQESRGFRKKIKRLEESNKKLALELEHEKGKLTGLGQSNAALREHNSILETALAKREADLVQLNLQVQAVLQRKEEEDRQMKHLVQALQASLEKEKEKVNSLKEQVAAAKVEAGHNRRHFKAASLELSEVKKELQAKEHLVQKLQAEADDLQIREGKHSQEIAQFQAELAEARAQLQLLQKQLDEQLSKQPVGNQEMENLKWEVDQKEREIQSLKQQLDLTEQQGRKELEGLQQLLQNVKSELEMAQEDLSMTQKDKFMLQAKVSELKNNMKTLLQQNQQLKLDLRRGAAKTRKEPKGEASSSNPATPIKIPDCPVPASLLEELLRPPPAVSKEPLKNLNSCLQQLKQEMDSLQRQMEEHALTVHESLSSWTPLEPATASPVPPGGHAGPRGDPQRHSQSRASKEGPGE
B6: Coiled-coil domain-containing protein 8 (protein, UniProt Q9H0W5 1-538)
chain: MLQIGEDVDYLLIPREVRLAGGVWRVISKPATKEAEFRERLTQFLEEEGRTLEDVARIMEKSTPHPPQPPKKPKEPRVRRRVQQMVTPPPRLVVGTYDSSNASDSEFSDFETSRDKSRQGPRRGKKVRKMPVSYLGSKFLGSDLESEDDEELVEAFLRRQEKQPSAPPARRRVNLPVPMFEDNLGPQLSKADRWREYVSQVSWGKLKRRVKGWAPRAGPGVGEARLASTAVESAGVSSAPEGTSPGDRLGNAGDVCVPQASPRRWRPKINWASFRRRRKEQTAPTGQGADIEADQGGEAADSQREEAIADQREGAAGNQRAGAPADQGAEAADNQREEAADNQRAGAPAEEGAEAADNQREEAADNQRAEAPADQRSQGTDNHREEAADNQRAEAPADQGSEVTDNQREEAVHDQRERAPAVQGADNQRAQARAGQRAEAAHNQRAGAPGIQEAEVSAAQGTTGTAPGARARKQVKTVRFQTPGRFSWFCKRRRAFWHTPRLPTLPKRVPRAGEARNLRVLRAEARAEAEQGEQEDQL
B7: Ribosomal biogenesis protein LAS1L (protein, UniProt Q9Y4W2 1-734)
chain: MSWESGAGPGLGSQGMDLVWSAWYGKCVKGKGSLPLSAHGIVVAWLSRAEWDQVTVYLFCDDHKLQRYALNRITVWRSRSGNELPLAVASTADLIRCKLLDVTGGLGTDELRLLYGMALVRFVNLISERKTKFAKVPLKCLAQEVNIPDWIVDLRHELTHKKMPHINDCRRGCYFVLDWLQKTYWCRQLENSLRETWELEEFREGIEEEDQEEDKNIVVDDITEQKPEPQDDGKSTESDVKADGDSKGSEEVDSHCKKALSHKELYERARELLVSYEEEQFTVLEKFRYLPKAIKAWNNPSPRVECVLAELKGVTCENREAVLDAFLDDGFLVPTFEQLAALQIEYEDGQTEVQRGEGTDPKSHKNVDLNDVLVPKPFSQFWQPLLRGLHSQNFTQALLERMLSELPALGISGIRPTYILRWTVELIVANTKTGRNARRFSAGQWEARRGWRLFNCSASLDWPRMVESCLGSPCWASPQLLRIIFKAMGQGLPDEEQEKLLRICSIYTQSGENSLVQEGSEASPIGKSPYTLDSLYWSVKPASSSFGSEAKAQQQEEQGSVNDVKEEEKEEKEVLPDQVEEEEENDDQEEEEEDEDDEDDEEEDRMEVGPFSTGQESPTAENARLLAQKRGALQGSAWQVSSEDVRWDTFPLGRMPGQTEDPAELMLENYDTMYLLDQPVLEQRLEPSTCKTDTLGLSCGVGSGNCSNSSSSNFEGLLWSQGQLHGLKTGLQLF

Each molecule was assayed against T1, hCLE-TAP tagged protein, purified as hCLE-CBD (human) (assay: affinity purification with mass spectrometry; TAP purification of hCLE-TAP from nuclear extracts of transfected HEK293T cells (150 mM NaCl, 10 mM Tris-HCl pH 8.0, 0.1% NP-40); LC-MS/MS; TAP alone as control).
For B1, the binding was “binds”.

These molecules were tested against T1, hCLE-TAP tagged protein, purified as hCLE-CBD (human) (assay: affinity purification with mass spectrometry; TAP purification of hCLE-TAP from cytosolic extracts of transfected HEK293T cells (150 mM NaCl); LC-MS/MS; TAP alone as control).
With “Disintegrin and metalloproteinase domain-containing prot. 9 (from UniProt Q13443 29-819)” the binding was “binds”.
For “DnaJ homolog subfamily B member 6 (from UniProt O75190 1-326)”, the binding was “binds”.
With “Microfibrillar-associated protein 1 (from UniProt P55081 1-439)” the binding was “binds”.
In the case of “Potassium-transporting ATPase alpha chain 1 (from UniProt P20648 1-1035)”, the binding is reported as “binds”.
For “Protein FAM98C (from UniProt Q17RN3 1-349)”, the binding was “binds”.
In the case of “Putative 60S ribosomal protein L13a-like MGC87657 (from UniProt Q6NVV1 1-102)”, the binding is reported as “binds”.
“Ribosome biogenesis protein BMS1 homolog (from UniProt Q14692 1-1282)” was tested, and the binding was “binds”.
With “Tight junction protein ZO-2 (from UniProt Q9UDY2 1-1190)” the binding was “binds”.
With “Transcriptional repressor p66-beta (from UniProt Q8WXI9 1-593)” the binding was “binds”.
In the case of B2, the binding is reported as “binds”.
For B3, the binding was “binds”.
In the case of B4, the binding is reported as “binds”.
For B5, the binding was “binds”.
With B6 the binding was “binds”.
B7 was tested, and the binding was “binds”.
